Results are given in words; binding and its absence hold for the method and conditions named. Binding seen in cells or lysates may run through a third protein. Some binding calls cover weakened binding; strength is not graded here.
Legend:
[1] = molecular target: myc-tagged HPV16 E7 deletion mutant E7ΔN (aa 28-98) (human papillomavirus type 16 (HPV16)) (UniProt P03129); test: co-IP; C33A cells co-transfected with pCMV-flag-SP1 and pCMV-myc-E7FL or pCMV-myc-E7ΔN, 48 h; whole cell lysate, anti-myc IP 12 h, protein G agarose; anti-flag blot
[2] = molecular target: myc-tagged HPV16 E7 full length (1-98 aa) (human papillomavirus type 16 (HPV16)) (UniProt P03129); test: as above
[3] = molecular target: myc-tagged HPV16 E7 deletion mutant E7ΔN (aa 28-98) (human papillomavirus type 16 (HPV16)) (UniProt P03129); test: cross-linking + co-IP; total lysate of transfected C33A cells mixed with MALAT1 promoter probe, UV irradiated, incubated with the indicated antibody at 4 °C 12 h, protein G agarose, western blot
[4] = molecular target: myc-tagged HPV16 E7 full length (1-98 aa) (human papillomavirus type 16 (HPV16)) (UniProt P03129); test: as above

The chains behind the UniProt entries cited, without tags or fusion partners.
UniProt P08047: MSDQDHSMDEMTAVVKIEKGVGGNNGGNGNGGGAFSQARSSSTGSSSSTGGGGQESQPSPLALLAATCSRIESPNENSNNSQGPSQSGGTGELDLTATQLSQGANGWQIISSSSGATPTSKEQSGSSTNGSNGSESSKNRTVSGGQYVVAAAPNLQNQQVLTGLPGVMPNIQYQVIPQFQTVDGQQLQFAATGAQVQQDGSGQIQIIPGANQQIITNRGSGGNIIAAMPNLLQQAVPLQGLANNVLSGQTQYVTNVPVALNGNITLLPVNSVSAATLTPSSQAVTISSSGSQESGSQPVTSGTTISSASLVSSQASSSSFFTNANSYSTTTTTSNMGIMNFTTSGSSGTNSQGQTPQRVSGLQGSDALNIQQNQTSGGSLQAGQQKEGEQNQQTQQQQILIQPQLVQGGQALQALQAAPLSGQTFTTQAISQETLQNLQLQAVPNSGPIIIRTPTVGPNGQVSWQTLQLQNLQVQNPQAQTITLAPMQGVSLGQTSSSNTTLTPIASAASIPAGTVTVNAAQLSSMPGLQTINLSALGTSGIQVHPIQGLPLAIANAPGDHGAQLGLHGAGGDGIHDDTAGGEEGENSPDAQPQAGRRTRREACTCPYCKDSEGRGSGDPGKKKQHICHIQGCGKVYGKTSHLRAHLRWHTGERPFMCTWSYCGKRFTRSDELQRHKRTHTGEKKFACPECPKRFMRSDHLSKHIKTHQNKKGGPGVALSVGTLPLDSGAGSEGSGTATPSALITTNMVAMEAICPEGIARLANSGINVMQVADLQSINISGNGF

Measured: binding

flag-tagged SP1 (Specificity protein 1) (from UniProt P08047 1-785)
binds: [1] | [2] | [3] | [4]

Source: article PMC8489136, “LncRNA MALAT1 was regulated by HPV16 E7 independently of pRB in cervical cancer cells”
